PubChem BioAssay AID1259308, NCATS, 2017

Purpose: 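Candidate targets for better recombinant protein yield in mammalian cells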 (primary screen)
System: human HEK293 embryonic kidney cells stably expressing firefly luciferase (HEK-CMV-Luc2-Hygro)
Reagent: single siRNA against human genes, 0.8 pmol siRNA per well
Time to read-out: 72 h
Detection: 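Luciferase light (ONE-Glo) measured on one replicate plate set and viability (CellTiter-Glo) on the other, scaled to a negative control siRNA, with robust z-scores and luciferase per cell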
Scale: total luciferase, z-score: higher = more reporter protein produced
Rule for the call: 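Active when the median/MAD z-score for overall luciferase is greater than 3; a gene was taken forward for validation with new siRNAs if at least two of its three siRNAs passed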
Calls: active = raised luciferase; inactive = no rise
In all, the deposit lists about 59,000 reagents; below is a random part of them. About 1,510 of all reagents (2.6%) were called active. 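Calls use total luciferase alone and ignore viability, so some active siRNAs may act by altering cell number.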 Reagents against one gene are numbered here. Further read-outs or replicates are left out here.

PYGM (glycogen phosphorylase, muscle associated) #1 showed total luciferase, z-score 0.433; inactive.
PYGM (glycogen phosphorylase, muscle associated) #2 scored total luciferase, z-score -0.45; inactive.
For PYGM (glycogen phosphorylase, muscle associated) #3, the values are total luciferase, z-score -0.732; inactive.
Silencing of ASGR2 (asialoglycoprotein receptor 2) #1 came out at: total luciferase, z-score -0.795; inactive.
Silencing of ASGR2 (asialoglycoprotein receptor 2) #2 resulted in: total luciferase, z-score 0.675; inactive.
With knock-down of ASGR2 (asialoglycoprotein receptor 2) #3 the results were total luciferase, z-score -0.613; inactive.
Against ZNF568 (zinc finger protein 568) #1, the entry reads total luciferase, z-score -1.32; inactive.
ZNF568 (zinc finger protein 568) #2 showed total luciferase, z-score 0.116; inactive.
Silencing of ZNF568 (zinc finger protein 568) #3 gave: total luciferase, z-score 1.42; inactive.
Depletion of FSD2 (fibronectin type III and SPRY domain containing 2) #1 resulted in: total luciferase, z-score -0.165; inactive.
Knock-down of FSD2 (fibronectin type III and SPRY domain containing 2) #2 came out at: total luciferase, z-score -0.786; inactive.
FSD2 (fibronectin type III and SPRY domain containing 2) #3 showed total luciferase, z-score -0.546; inactive.

Reprinted from the entries so far (2 entries):
FSD2 (fibronectin type III and SPRY domain containing 2) #1: total luciferase, z-score = -0.165; activity call = inactive
FSD2 (fibronectin type III and SPRY domain containing 2) #2: total luciferase, z-score = -0.786; activity call = inactive
